For 37 sequences, binding signal results are on record in publication PMC7862700.

In one assay the target is T1, ELK3 (UniProt P41970).
T1 sequence: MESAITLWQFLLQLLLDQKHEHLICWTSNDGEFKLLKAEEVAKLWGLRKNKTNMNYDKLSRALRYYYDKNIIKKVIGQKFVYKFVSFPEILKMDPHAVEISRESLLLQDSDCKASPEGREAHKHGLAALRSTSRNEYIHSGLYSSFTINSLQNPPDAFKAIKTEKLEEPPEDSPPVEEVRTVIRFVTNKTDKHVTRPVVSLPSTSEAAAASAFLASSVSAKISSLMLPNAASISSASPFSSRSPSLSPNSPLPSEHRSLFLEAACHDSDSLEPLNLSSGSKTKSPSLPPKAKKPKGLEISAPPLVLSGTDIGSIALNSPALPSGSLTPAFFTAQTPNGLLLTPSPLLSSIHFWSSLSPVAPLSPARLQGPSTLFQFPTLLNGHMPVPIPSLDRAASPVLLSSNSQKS
In words: DAPPL (digital affinity profiling via proximity ligation, sequencing). Particulars: 10 mM Tris-HCl pH 7.5, 50 mM NaCl, 1 mM DTT, 4% glycerol, room temperature, 30 min; GST-TFs on glutathione beads, 16-mer random dsDNA library, 0.1% …; high values mean tight binding; double strand, one strand shown; scale: fold enrichment (6-mer frequency, TF over GST control).

The target of another assay is T2, ETV3 (UniProt P41162-2).
T2 sequence: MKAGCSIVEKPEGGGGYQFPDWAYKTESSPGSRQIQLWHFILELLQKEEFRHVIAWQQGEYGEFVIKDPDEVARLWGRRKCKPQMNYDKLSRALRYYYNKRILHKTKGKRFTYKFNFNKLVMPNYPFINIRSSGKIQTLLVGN
The assay is described as above. To be noted: 10 mM Tris-HCl pH 7.5, 50 mM NaCl, 1 mM DTT, 4% glycerol, room temperature, 30 min; GST-TFs on glutathione beads, 16-mer random dsDNA library, 0.1% …; high values mean tight binding; double strand, one strand shown; scale: fold enrichment (6-mer frequency, TF over GST control).

The list shows a part of the results, in another mix than the full data. At the low end of the ranking, values are background and their order means little.

Turning to TCCTTT, the binding signal in the assay with ELK3 was found to be 1.81; with ETV3, 1.78.

Turning to TGCTAC, the binding signal in the assay with ELK3 was found to be 1.26; with ETV3 it was 1.23.

In the case of GACCTG, the values for the binding signal in the assay with ELK3 and with ETV3 were 1.35 and 1.17, respectively.

For the sequence AGGCTC, the figures for the binding signal with ELK3 and with ETV3 were 0.952 and 1.01, respectively.

Take TCCCCA: the binding signal stood at 1.34 with ELK3 and 1.36 with ETV3.

As for CAATAA, the binding signal with ELK3 was found to be 1.2.

In the assay with ELK3, AAGAAT yielded a binding signal of 1.1.

For the sequence TCTCAC, the binding signal is 1.58 in the assay with ELK3 and 1.34 in the assay with ETV3.

For the sequence ATGTGT, the binding signal with ELK3 stood at 1.06.

Regarding TGAAAA, the values for the binding signal with ELK3 and in the assay with ETV3 were 0.941 and 0.975, respectively.

Consider ATTGCT, for which the binding signal with ELK3 is 1.22; with ETV3 it was 1.11.

In the assay with ELK3, ATCTCT yielded a binding signal of 1.3.

As to TGCTGT, the binding signal with ELK3 came out at 0.962; with ETV3, 0.993.

On to AAATTG, for which the results for the binding signal with ELK3 and in the assay with ETV3 were 1.22 and 1.28, respectively.

In the case of TGTTCT, the binding signal turned out to be 1.21 with ELK3 and 1.27 with ETV3.

For ATAGCT, the binding signal in the assay with ELK3 came to 0.998; in the assay with ETV3 it was 1.12.

ATGACG: the binding signal with ELK3 was found to be 1.39; in the assay with ETV3, 1.2.

In the case of AATGCA, the binding signal with ELK3 was determined as 1.3; with ETV3 it was 1.25.

In the case of TGACTT, the binding signal was found to be 1.27 with ELK3 and 1.46 with ETV3.

As to AATTAG, the binding signal with ELK3 was found to be 1.09; in the assay with ETV3, 1.19.

Consider TCTTGA, for which the binding signal with ELK3 was 1.29.

With TCTTCA, the binding signal came out at 1.27 in the assay with ELK3 and 1.16 with ETV3.

For AACCAA, the binding signal with ELK3 stood at 1.19; with ETV3, 1.18.

CGAAAA: the binding signal with ELK3 amounted to 1.01; in the assay with ETV3, 0.957.

In the assay with ELK3, CTGACT had a binding signal of 1.26.

Consider TTAAAG, for which the binding signal in the assay with ELK3 is 1.09.

As for TAGTCC, the binding signal in the assay with ELK3 was determined as 1.07; with ETV3, 0.959.

CGACCG gave a binding signal with ELK3 of 1.21.

On to GTCTAC, for which the binding signal with ELK3 and with ETV3 was 1.06 each time.

With TCCATC, the binding signal with ELK3 amounted to 1.28; with ETV3 it was 1.22.

For CGATAC, the values for the binding signal with ELK3 and with ETV3 were 1.14 and 1.15, respectively.

In the case of ATCTCG, the figures for the binding signal in the assay with ELK3 and with ETV3 were 1.26 and 1.29, respectively.

As for ACATAC, the binding signal with ELK3 came out at 1.17.

Turning to TAGGTT, the figures for the binding signal with ELK3 and with ETV3 were 1.16 and 1.14, respectively.

Turning to CTATGA, the binding signal worked out at 1.01 with ELK3 and 0.965 with ETV3.

In the assay with ELK3, TGGTCT returned a binding signal of 1.65.

Take GATGCC: the binding signal came out at 1.38 with ELK3 and 1.39 with ETV3.
